Measurements from US20200024335A1 (BERG, published 2020).
These are yes or no findings as the source states them, for the method shown. Some entries that bind do so weakly or less than the wild type.

T1: FLNB (standards, controls and FLNB in human serum or plasma samples, sandwich ELISA of Example 5) (human) (UniProt O75369)
T1 sequence (looked up): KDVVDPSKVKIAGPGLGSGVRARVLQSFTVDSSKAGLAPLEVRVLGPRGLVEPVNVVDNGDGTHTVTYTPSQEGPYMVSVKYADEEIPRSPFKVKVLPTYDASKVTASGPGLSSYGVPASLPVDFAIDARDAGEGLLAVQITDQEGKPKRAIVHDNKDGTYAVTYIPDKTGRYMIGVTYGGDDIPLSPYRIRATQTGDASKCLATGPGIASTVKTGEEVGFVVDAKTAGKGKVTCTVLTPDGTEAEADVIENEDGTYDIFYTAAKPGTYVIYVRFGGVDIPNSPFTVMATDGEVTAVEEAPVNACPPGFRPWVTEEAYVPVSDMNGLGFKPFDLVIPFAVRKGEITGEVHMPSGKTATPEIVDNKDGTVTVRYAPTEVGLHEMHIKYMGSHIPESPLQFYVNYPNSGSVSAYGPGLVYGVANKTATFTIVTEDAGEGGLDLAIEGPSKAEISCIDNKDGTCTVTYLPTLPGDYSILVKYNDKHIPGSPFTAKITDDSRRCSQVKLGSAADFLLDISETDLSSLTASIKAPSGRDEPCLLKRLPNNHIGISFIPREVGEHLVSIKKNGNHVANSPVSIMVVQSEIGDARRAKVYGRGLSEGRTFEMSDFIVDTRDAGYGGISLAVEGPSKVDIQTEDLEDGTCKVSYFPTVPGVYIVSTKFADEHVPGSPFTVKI

T2: E. coli-expressed partial FLNB (aa1416-2089), Filamin B immunogen (human) (UniProt O75369)
T2 sequence: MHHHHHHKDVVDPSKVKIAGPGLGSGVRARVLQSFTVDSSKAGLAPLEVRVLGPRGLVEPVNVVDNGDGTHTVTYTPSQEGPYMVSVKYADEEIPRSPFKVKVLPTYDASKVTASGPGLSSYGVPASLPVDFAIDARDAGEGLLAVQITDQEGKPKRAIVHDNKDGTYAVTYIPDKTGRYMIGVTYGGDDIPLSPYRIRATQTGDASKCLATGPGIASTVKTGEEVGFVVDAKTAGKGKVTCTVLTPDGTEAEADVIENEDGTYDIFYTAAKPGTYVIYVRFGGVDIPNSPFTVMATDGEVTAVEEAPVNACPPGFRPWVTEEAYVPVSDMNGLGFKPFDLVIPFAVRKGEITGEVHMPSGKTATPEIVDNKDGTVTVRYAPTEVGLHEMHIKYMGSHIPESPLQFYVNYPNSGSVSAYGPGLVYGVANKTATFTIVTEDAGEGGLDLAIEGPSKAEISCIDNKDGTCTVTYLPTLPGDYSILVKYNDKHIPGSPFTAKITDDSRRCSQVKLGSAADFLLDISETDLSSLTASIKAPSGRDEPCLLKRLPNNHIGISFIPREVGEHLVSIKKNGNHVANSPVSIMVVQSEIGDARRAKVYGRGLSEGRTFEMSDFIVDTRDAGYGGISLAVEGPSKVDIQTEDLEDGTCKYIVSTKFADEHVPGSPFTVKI


Assays:
[1] = target: T1, FLNB (standards, controls and FLNB in human serum or plasma samples, sandwich ELISA of Example 5) (human); assay: sandwich ELISA, 3F10 coated as capture antibody
[2] = target: T2, E. coli-expressed partial FLNB (aa1416-2089), Filamin B immunogen (human); assay: ELISA, coated protein, hybridoma supernatant
[3] = target: T1, FLNB (standards, controls and FLNB in human serum or plasma samples, sandwich ELISA of Example 5) (human); assay: sandwich ELISA, biotin-linked 5H7 as detection antibody

Binder | binding [1] | binding [2] | binding [3]
3F10 murine monoclonal anti-FLNB antibody (antibody, V domains shown, Tested as hybridoma supernatant or purified antibody; also called clone 3F10; anti-FLNB antibody (3F10)) VH: QVQLQQPGAELVKPGASVKLSCKASGYTFTSYWMHWVKQRPGQGLEWIGMIHPNSGSTNYNEKFKSKATLTVDKSSSTAYMQLSSLTSEDSAVYYCAIYGSGPWFAYWGQGTLVTVSA VL: DIQMTQSPASLSASVGETVTITCRASENIYSSLAWYQQKQGKSPQLLVYYAKTLAEGVPSRFSGSGSGTQFSLKINRLQPEDFGSYYCQHHYGSPLTFGAGTKLELK | binds | binds | –
5H7 murine monoclonal anti-FLNB antibody (antibody, IgG2b, V domains shown, also called clone 5H7; biotin-linked monoclonal antibody specific for FLNB (5H7)) VH: DVQLQESGPGLVKPSQSLSLTCSVTGYSITSGYYWNWIRQFPGNKLEWMGYISYDGSNNYNPSLKNRISITRDTSKNQFFLRLNSVTTEDTATYYCARETWASFDYWGQGTTLTVSS VL: DIVMTQSQKFMSTTVGDRVGITCKASQNVGIAVAWYQQKPGQSPRLLIYSASYRYTGVPDRFSGSGSGTDFTLTINNMQSEDLADYFCQQYSSYPLTFGSGTKLEIK | – | binds | binds
